This is one part of the list. Most values lie at the level of the controls, where differences are scatter.

Protein sequences, listed by entry. Tags and fused reporters are not part of them. Lines headed by an entry give the natural chain unless they say otherwise; changes in a name come on top.
UniProt Q61768: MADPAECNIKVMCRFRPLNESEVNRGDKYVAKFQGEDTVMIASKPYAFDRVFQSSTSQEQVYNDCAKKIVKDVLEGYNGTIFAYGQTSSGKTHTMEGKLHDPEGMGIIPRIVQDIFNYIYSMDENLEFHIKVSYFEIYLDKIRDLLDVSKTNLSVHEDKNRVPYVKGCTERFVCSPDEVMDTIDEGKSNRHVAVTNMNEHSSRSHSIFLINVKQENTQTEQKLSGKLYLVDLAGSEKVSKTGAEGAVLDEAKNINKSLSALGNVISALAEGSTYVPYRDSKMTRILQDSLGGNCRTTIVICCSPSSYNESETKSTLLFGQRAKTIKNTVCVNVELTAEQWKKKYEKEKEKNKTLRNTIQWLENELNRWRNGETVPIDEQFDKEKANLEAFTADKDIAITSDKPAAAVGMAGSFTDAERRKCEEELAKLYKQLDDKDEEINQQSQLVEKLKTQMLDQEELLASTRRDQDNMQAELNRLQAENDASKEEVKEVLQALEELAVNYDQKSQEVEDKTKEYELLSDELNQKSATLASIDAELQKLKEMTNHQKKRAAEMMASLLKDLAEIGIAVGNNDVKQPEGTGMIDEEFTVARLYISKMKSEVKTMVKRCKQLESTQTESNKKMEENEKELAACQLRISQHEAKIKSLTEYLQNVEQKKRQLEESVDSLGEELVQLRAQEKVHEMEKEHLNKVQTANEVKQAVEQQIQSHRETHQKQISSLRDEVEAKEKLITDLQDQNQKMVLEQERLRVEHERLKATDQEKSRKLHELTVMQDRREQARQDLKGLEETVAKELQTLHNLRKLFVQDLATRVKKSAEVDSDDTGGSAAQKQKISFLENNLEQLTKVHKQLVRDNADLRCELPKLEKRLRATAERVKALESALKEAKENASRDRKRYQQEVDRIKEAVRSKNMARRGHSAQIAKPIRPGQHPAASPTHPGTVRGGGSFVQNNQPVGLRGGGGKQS
UniProt Q6IEE6: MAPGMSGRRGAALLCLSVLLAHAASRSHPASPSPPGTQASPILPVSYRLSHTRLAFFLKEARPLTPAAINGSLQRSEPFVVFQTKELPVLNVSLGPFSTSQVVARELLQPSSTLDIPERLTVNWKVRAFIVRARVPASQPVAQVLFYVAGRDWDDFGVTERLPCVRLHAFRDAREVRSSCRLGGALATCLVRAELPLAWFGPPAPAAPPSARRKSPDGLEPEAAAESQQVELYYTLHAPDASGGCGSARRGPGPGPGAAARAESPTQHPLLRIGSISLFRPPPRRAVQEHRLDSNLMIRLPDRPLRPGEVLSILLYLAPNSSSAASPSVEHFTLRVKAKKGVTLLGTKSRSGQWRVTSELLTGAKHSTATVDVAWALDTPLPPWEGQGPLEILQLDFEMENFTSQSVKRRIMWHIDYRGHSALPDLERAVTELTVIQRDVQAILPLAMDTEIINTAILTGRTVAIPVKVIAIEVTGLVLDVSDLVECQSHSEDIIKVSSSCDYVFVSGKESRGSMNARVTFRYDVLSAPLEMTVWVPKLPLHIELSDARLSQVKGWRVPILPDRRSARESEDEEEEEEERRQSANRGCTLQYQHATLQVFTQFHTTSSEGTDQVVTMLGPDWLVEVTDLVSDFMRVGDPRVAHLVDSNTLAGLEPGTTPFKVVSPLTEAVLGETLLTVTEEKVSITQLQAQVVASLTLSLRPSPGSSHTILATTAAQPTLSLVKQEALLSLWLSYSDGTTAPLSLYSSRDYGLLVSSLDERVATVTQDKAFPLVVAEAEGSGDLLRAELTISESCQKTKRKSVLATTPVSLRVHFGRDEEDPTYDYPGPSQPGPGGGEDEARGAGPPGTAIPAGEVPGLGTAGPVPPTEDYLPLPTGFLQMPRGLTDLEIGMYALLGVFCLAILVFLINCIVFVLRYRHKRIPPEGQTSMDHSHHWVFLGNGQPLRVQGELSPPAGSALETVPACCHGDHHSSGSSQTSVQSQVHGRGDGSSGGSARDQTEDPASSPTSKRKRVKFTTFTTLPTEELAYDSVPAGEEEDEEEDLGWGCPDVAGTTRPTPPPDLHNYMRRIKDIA
UniProt Q61937, whole entry: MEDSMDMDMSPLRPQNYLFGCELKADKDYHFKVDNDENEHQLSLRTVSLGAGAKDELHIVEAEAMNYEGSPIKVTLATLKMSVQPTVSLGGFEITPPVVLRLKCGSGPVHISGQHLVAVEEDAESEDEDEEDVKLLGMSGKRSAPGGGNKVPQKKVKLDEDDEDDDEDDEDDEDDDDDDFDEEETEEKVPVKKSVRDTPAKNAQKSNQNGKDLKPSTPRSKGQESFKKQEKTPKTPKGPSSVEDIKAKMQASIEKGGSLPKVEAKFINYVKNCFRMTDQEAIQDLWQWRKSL
UniProt Q61704: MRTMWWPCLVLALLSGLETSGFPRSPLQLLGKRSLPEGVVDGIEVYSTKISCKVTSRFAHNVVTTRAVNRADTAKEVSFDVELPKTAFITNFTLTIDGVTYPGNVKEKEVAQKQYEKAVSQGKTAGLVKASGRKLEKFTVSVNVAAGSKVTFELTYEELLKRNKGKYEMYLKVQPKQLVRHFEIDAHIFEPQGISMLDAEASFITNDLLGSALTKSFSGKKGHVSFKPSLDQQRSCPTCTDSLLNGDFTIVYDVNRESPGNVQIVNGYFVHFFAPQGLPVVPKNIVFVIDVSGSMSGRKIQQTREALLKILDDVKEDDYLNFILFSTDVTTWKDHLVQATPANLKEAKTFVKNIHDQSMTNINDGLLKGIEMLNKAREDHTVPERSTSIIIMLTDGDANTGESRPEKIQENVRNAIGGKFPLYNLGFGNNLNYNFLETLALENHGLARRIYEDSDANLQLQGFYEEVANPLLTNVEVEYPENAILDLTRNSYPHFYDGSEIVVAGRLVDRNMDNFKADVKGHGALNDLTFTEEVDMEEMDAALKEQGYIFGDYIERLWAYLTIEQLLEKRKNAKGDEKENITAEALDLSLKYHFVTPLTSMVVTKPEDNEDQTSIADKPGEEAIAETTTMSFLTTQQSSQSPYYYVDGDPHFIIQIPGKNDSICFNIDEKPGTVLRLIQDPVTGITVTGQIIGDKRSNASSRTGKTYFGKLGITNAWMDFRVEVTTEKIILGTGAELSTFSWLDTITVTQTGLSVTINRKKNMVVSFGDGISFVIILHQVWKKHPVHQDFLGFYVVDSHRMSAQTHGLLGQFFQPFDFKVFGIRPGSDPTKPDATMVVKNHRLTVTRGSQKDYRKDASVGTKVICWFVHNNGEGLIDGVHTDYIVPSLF
UniProt Q62440: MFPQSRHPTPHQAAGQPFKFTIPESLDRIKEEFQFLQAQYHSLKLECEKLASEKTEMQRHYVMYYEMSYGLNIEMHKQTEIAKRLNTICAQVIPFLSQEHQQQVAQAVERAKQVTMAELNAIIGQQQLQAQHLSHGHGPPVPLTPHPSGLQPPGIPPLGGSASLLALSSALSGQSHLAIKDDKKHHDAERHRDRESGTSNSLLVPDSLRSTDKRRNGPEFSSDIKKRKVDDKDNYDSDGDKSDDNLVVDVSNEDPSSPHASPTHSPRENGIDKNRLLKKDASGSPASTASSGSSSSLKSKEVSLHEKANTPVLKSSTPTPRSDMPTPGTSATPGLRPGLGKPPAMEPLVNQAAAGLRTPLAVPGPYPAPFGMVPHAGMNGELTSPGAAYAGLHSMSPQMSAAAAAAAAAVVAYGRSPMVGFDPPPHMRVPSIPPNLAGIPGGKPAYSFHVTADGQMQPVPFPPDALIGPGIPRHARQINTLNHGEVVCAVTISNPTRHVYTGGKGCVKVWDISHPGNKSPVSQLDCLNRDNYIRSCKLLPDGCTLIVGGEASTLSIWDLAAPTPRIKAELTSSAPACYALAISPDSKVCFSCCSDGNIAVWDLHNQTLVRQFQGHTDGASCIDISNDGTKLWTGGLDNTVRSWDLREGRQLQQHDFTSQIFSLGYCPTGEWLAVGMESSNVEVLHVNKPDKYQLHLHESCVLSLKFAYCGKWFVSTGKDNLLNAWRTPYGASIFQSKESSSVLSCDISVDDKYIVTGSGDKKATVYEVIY
UniProt Q64487, whole entry: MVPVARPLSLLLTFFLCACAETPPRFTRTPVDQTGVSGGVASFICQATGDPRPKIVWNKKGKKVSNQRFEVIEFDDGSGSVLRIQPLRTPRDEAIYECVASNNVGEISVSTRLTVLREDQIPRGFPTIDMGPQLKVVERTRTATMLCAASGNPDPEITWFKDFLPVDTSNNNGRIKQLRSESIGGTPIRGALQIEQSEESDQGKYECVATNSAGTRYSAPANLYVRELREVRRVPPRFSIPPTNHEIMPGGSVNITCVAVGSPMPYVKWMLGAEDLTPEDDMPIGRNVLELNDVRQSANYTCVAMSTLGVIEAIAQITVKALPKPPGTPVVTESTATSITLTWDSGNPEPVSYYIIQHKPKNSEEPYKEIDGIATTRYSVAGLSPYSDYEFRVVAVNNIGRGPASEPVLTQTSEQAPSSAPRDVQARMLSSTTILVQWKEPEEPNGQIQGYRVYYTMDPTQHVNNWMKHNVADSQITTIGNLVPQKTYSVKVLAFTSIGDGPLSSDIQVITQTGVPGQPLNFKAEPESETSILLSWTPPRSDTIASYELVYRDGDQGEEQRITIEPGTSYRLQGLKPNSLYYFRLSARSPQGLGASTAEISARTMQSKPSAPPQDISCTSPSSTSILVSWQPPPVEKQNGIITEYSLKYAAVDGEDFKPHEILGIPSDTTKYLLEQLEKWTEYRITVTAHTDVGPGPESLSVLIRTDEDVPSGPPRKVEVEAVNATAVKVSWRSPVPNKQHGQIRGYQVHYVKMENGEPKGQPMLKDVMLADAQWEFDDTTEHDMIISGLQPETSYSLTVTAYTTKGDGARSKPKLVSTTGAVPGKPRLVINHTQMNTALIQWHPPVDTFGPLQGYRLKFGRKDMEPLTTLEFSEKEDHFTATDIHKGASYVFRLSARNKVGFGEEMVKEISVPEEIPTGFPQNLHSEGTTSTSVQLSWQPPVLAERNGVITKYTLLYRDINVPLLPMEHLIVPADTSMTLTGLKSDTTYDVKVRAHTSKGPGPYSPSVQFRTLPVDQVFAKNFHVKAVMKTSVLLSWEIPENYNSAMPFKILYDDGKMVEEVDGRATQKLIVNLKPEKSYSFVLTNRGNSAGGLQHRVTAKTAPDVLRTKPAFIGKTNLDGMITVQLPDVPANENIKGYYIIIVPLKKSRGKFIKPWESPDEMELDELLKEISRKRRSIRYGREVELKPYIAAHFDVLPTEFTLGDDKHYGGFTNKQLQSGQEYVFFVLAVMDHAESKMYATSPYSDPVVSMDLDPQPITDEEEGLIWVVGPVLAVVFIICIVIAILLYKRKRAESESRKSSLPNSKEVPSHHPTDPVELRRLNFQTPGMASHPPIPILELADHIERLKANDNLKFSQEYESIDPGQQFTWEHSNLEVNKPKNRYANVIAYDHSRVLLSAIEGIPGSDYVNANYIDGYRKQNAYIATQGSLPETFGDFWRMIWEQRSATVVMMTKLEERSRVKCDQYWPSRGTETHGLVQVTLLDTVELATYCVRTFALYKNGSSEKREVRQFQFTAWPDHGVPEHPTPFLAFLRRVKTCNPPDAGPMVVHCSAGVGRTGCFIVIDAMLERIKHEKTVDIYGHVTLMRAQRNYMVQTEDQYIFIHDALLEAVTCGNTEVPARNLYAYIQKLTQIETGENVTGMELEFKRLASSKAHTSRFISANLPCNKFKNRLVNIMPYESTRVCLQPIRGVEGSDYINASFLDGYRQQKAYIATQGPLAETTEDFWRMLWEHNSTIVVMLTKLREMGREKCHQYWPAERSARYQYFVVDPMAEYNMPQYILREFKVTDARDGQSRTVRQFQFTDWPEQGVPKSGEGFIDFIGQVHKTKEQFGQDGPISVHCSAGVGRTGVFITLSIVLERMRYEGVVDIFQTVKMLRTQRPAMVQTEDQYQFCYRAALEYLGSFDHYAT
UniProt Q61712: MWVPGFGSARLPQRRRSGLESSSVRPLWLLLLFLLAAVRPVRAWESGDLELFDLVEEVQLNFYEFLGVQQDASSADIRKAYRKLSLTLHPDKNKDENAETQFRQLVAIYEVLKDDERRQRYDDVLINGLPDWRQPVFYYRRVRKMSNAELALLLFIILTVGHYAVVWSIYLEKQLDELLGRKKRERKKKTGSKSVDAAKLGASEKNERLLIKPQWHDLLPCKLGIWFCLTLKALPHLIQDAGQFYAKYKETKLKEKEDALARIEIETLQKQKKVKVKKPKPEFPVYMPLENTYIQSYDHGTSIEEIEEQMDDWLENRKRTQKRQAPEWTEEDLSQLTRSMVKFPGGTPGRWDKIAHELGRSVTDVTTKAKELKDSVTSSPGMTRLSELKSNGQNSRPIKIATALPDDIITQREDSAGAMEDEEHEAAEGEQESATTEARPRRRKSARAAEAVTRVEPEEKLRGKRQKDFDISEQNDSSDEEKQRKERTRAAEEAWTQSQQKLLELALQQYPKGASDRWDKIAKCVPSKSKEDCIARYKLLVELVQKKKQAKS

Compound in the assay: CN[C@@H]1C[C@H]2O[C@@](C)([C@@H]1OC)n1c3ccccc3c3c4c(c5c6ccccc6n2c5c31)C(=O)NC4 [staurosporine]
Put plainly: log2 fold change of pooled soluble protein (PISA), ligand vs vehicle (log2 ratio); higher = more thermally stabilized. The note with it: ligand concentration: 20 uM; assay format: PISA pool 52.9/55.5/58.6 C.
As for UniProt Q61526, the “log2 fold change of pooled soluble protein” value (“log2 fold change” for short) was -0.0778.

Turning to UniProt Q6NVE8, the “log2 fold change” value was 0.0185.

In the case of UniProt Q64737, the “log2 fold change” value turned out to be 0.0457.

For the target UniProt Q60787, the “log2 fold change” value is -0.356.

Take UniProt Q62463: the “log2 fold change” value was -0.031.

For UniProt Q65Z40, the “log2 fold change” value was -0.0915.

Regarding UniProt Q6NXI6, the “log2 fold change” value amounted to 0.025.

For UniProt Q61112, the “log2 fold change” value turned out to be 0.0232.

For UniProt Q6DYE8, the “log2 fold change” value is -0.608.

Regarding UniProt Q5SSH7, the “log2 fold change” value was 0.0537.

Consider UniProt Q61830, for which the “log2 fold change” value stood at 0.0384.

In the case of UniProt Q61768, the “log2 fold change” value was -0.1.

Regarding UniProt Q6IEE6, the “log2 fold change” value is -0.0251.

On to UniProt Q5SSZ5, for which the “log2 fold change” value was determined as 0.105.

In the case of UniProt Q64705, the “log2 fold change” value turned out to be 0.168.

On to UniProt Q62203, for which the “log2 fold change” value was determined as 0.313.

In the case of UniProt Q61595, the “log2 fold change” value is -0.014.

As for UniProt Q61093, the “log2 fold change” value is -0.236.

For the target UniProt Q60989, the “log2 fold change” value was determined as 0.0698.

For UniProt Q61937, the “log2 fold change” value worked out at 0.0748.

Regarding UniProt Q61176, the “log2 fold change” value was -0.0227.

On to UniProt Q64442, for which the “log2 fold change” value came to 0.0804.

With UniProt Q61687, the “log2 fold change” value worked out at 0.0108.

UniProt Q61704: the “log2 fold change” value was -0.397.

Turning to UniProt Q61316, the “log2 fold change” value was -0.00384.

For the target UniProt Q69ZC8, the “log2 fold change” value was -0.0765.

On to UniProt Q62440, for which the “log2 fold change” value was -0.0302.

In the case of UniProt Q64487, the “log2 fold change” value was -0.196.

Consider UniProt Q5SZA1, for which the “log2 fold change” value amounted to 0.157.

With UniProt Q5SFM8, the “log2 fold change” value is -0.0558.

As for UniProt Q63918, the “log2 fold change” value was determined as 0.0642.

On to UniProt Q61129, for which the “log2 fold change” value worked out at 0.000721.

As for UniProt Q61712, the “log2 fold change” value was -0.0368.

Take UniProt Q6NSR8: the “log2 fold change” value is -0.0935.

Consider UniProt Q62348, for which the “log2 fold change” value was 0.153.

Consider UniProt Q60738, for which the “log2 fold change” value stood at 0.0243.
